According to PubChem BioAssay AID1259354 (Paczesny and Yang Labs, IUPUI and University of Michigan, 2018):
In all, about 78,000 compounds went through this assay and about 1,800 (2.3%) were called active. The shares of active, inactive and inconclusive entries below differ from those in the screen. Cut-off read from the data, not from the text of the source: active = inhibition above about 30%; inconclusive = mostly about 10% to 28%; inactive = weaker than that.

Chains of the proteins cited; added tags and fusions are not shown. Lines headed by an entry give the natural chain unless they say otherwise; changes in a name come on top.
UniProt Q01638: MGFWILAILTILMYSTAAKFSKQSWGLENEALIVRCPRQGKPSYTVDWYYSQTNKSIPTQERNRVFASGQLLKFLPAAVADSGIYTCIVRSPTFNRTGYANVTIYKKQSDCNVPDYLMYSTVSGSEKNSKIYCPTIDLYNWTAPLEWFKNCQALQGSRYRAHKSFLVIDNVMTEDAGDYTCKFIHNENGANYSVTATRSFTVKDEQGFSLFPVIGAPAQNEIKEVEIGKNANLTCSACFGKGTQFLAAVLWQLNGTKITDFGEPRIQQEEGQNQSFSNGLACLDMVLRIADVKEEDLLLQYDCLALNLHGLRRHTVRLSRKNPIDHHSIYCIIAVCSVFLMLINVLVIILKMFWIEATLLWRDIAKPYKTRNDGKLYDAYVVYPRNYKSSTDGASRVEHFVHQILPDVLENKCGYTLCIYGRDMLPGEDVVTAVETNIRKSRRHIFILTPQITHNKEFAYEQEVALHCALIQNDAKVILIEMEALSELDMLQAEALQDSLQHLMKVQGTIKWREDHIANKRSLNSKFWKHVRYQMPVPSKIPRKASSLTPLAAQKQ

molecular target: Interleukin-1 receptor-like 1 (Homo sapiens) (UniProt Q01638); test: blocks human ST2 binding to IL-33, primary screen, biochemical, AlphaLISA (AID 1259354); details: AlphaLISA ST2-Fc/biotin-IL-33 interaction, 1 h; at 17 µM, stronger effect = higher value

Structure (SMILES) | inhibition
Cc1cccc2oc(-c3cc(N=Cc4ccccc4O)ccc3O)nc12 | inconclusive: 25%
O=C(NC1CCCC1)c1noc2c1CCCCC2 | inconclusive: 25%
CCCN1CC=C2C(C#N)=C(N)C(C#N)(C#N)C(c3ccsc3)C2C1 (centres undefined) | inactive
O=c1c(-c2ccc(O)cc2)coc2cc(O)ccc12 | inconclusive: 13%
CC(C)CCCC1CN(C(=O)c2ccc3[nH]c(=O)c(=O)[nH]c3c2)CCO1 (centres undefined) | inconclusive: 12%
Cc1ccc(OCc2nnc(SCC(=O)NCCc3ccccc3)n2-c2ccccc2)cc1C | inconclusive: 14%
Cn1cnc(S(=O)(=O)N2CCCC(C(=O)Nc3ccc(S(N)(=O)=O)cc3)C2)c1 (centres undefined) | inactive
COc1cccc(C2C(C(=O)Nc3ccccn3)=C(C)Nc3nnnn32)c1OC (centres undefined) | inactive
CCc1cc(CN(C)CCn2c(=O)oc3ccccc32)on1 | inactive
O=C(Cc1ccccc1)c1ccc(O)c(O)c1O | inconclusive: 12%
CCOC(=O)C1=C(N)OC2=C(C(=O)CC(c3ccccc3)C2)C1c1ccc(F)cc1 (centres undefined) | inactive
O=C1Nc2ccccc2N(O)N1c1ccc(Br)cc1F | inconclusive: 20%
NC(=O)c1ccc[n+](CC(=O)c2ccc(Cl)cc2)c1 | inactive
O=[N+]([O-])c1ccc(N2CCN(C/C=C/c3ccccc3)CC2)cc1 | inconclusive: 15%
COc1cccc(C2CCCCN2Cc2nc(-c3ccc(F)c(OC)c3)oc2C)c1 (centres undefined) | inconclusive: 14%
COc1ccc2c(c1)c(C(=O)CN1CCCCC1)c(C)n2C | inconclusive: 23%
CCOc1ccccc1NC(=O)c1cc2cc3ccc(OC)cc3nc2o1 | inactive
COc1ccc([N+](=O)[O-])cc1NC(=O)c1cccc(Cl)c1Cl | inconclusive: 21%
Cc1nonc1CN(C)S(=O)(=O)NCc1ccccc1 | inconclusive: 20%
Cc1ccc(-c2noc([C@@H]3C[C@H](NC(=O)CC(C)(C)CC(=O)O)CN3C)n2)cc1 | inconclusive: 17%
O=C(Cc1cc2c(cc1Cl)OCCO2)N1CC[C@H](CO)[C@H](O)C1 | inconclusive: 18%
Cc1[nH]nc2c1C(c1c(F)cccc1F)C(C#N)=C(N)O2 (centres undefined) | active: 32%
CC1=C(C(=O)Nc2ccccc2)C(c2cccc(O)c2)n2nc(SCc3ccccc3)nc2N1 (centres undefined) | inconclusive: 17%
COc1nc(OC)nc(Oc2ccccc2)n1 | inconclusive: 15%

Structure (SMILES) | inhibition
O=C(Nc1cccc([N+](=O)[O-])c1)c1cc(S(=O)(=O)N2CCCCC2)cs1 | inconclusive: 17%
Cc1cccc2oc(-c3cc(N=Cc4cc([N+](=O)[O-])ccc4O)ccc3O)nc12 | active: 32%
O=C(CCC1CCCN(C(=O)c2sccc2Cl)C1)NC1CC1 (centres undefined) | inactive
CC1CCC(NC(=O)C2(C)CCC(=O)N2CCc2ccc(Cl)cc2)CC1 (centres undefined) | inactive
COc1cc(NC(=O)c2cccc(Br)c2)c(OC)cc1Cl | inactive
Cc1ccc(-c2n[nH]c(=O)c3ccccc23)cc1S(=O)(=O)N(C)C | inconclusive: 12%
C[C@H]1O[C@@H](n2cc(F)c(=O)[nH]c2=O)[C@H](O)[C@@H]1O | inconclusive: 11%
COc1ccc(N2C(=O)c3c(C)nc4ccccc4c3C2=O)cc1 | inconclusive: 18%
Cc1cccc(N=Cc2nc(-c3ccc(Br)cc3)oc2O)n1 | inconclusive: 18%
COc1ccc(CN(C)C(=O)[C@@H]2C[C@H](N)CN2C)c2ccccc12 | inactive
CCc1ncc(C(=O)N(C)Cc2ccccc2C(F)(F)F)cn1 | inactive
Cc1noc(-c2ccc(Oc3ccc(CN4CCCC4)cc3F)nc2)n1 | inconclusive: 13%
N#CC1=C(N)N(c2ccc(Br)cc2F)C2=C(C(=O)CCC2)C1c1ccsc1 (centres undefined) | inconclusive: 14%
O=C(CSc1c2c(nc3cc(Cl)ccc13)CCCC2)N1CCN(Cc2ccccc2)CC1 | inconclusive: 19%
CCCCNC(=O)c1ccc(-c2ccn[nH]2)o1 | inconclusive: 16%
O=C(CC[C@@H]1CNC(=O)[C@@H]2C[C@H](NCc3ccc(OC(F)(F)F)cc3)CN12)Nc1ccccc1 | inconclusive: 11%
O=S(=O)(NC1CCCC1)c1cc(Cl)ccc1Cl | inactive
Cc1cccc2oc(-c3cc(N=Cc4cc([N+](=O)[O-])cc([N+](=O)[O-])c4O)ccc3O)nc12 | inconclusive: 19%
Cc1cc(NC(=O)CSc2cn(Cc3ccccc3Cl)c3ccccc23)no1 | inactive
NC(=O)C1CCN(C(=O)c2cnn(-c3ccccc3)c2NC(=O)c2ccco2)CC1 | inconclusive: 13%
CCCCC(=O)Nc1ccc(NC(=O)C(Cl)(Cl)Cl)cc1OC | inactive
O=C(Nc1nc2c(s1)CCCC2)c1ccc(S(=O)(=O)N2CCc3ccccc3C2)cc1 | inconclusive: 10%
CCOc1ccc(S(=O)(=O)N2CCSC2c2ccc([N+](=O)[O-])cc2)cc1 (centres undefined) | inconclusive: 11%
CC(Oc1ccccc1/C=C/c1ccccc1)C(N)=O (centres undefined) | inconclusive: 11%

Another view of 2 compounds above:
Structure (SMILES),inhibition
O=C(CCC1CCCN(C(=O)c2sccc2Cl)C1)NC1CC1 (centres undefined),inactive
O=S(=O)(NC1CCCC1)c1cc(Cl)ccc1Cl,inactive

As a working copy, 6 of the compounds above:
Structure (SMILES) | inhibition
CCOc1ccccc1NC(=O)c1cc2cc3ccc(OC)cc3nc2o1 | inactive
COc1ccc([N+](=O)[O-])cc1NC(=O)c1cccc(Cl)c1Cl | inconclusive: 21%
Cc1nonc1CN(C)S(=O)(=O)NCc1ccccc1 | inconclusive: 20%
Cc1ccc(-c2noc([C@@H]3C[C@H](NC(=O)CC(C)(C)CC(=O)O)CN3C)n2)cc1 | inconclusive: 17%
O=C(Cc1cc2c(cc1Cl)OCCO2)N1CC[C@H](CO)[C@H](O)C1 | inconclusive: 18%
Cc1[nH]nc2c1C(c1c(F)cccc1F)C(C#N)=C(N)O2 (centres undefined) | active: 32%

Next part

Structure (SMILES) | inhibition
CC(=O)Nc1cnn(-c2ccc(C(=O)N3CCC(c4ccccc4Cl)C3)cc2)c1 (centres undefined) | inactive
COc1ccc(C2CC(=O)C3=C(C2)Nc2ccccc2NC3c2ccc([N+](=O)[O-])cc2)cc1OC (centres undefined) | inconclusive: 20%
CCN(Cc1ccc(F)cc1)C(=O)CC(=O)Nc1ccc(C)cc1 | inconclusive: 17%
CCOc1ccc(Cn2c(CNS(=O)(=O)c3ccc(Cl)cc3)nc3cccnc32)cc1 | inactive
CN(CCc1ccccn1)[C@H]1[C@@H]2OC[C@@H](O2)[C@@H](NC(=O)Nc2ccccc2)[C@@H]1O | inactive
COc1cc(NC(=O)c2ccc([N+](=O)[O-])cc2)cc(OC)c1 | inactive
CC1=C(C(=O)N2CCc3c(c(C(=O)N4CCCCC4)nn3CCCc3cccnc3)C2)OCCO1 | inconclusive: 16%
CSc1ccc(CN2CCCC(Nc3ccc4c(c3)OCCO4)C2)cc1 (centres undefined) | inconclusive: 17%
O=C(O)c1ccc(CN2C[C@H](O)C[C@H]2c2nc(-c3ccc(C(F)(F)F)cc3)no2)cc1 | inactive
COC(=O)c1c(-c2cc(OC)c(OC)c(OC)c2)c2ccc(OCc3ccccn3)cc2c(=O)n1-c1ccc(N)cc1 | inconclusive: 18%
CCCCn1c(CCCNC(=O)c2cccs2)nc2ccccc21 | inactive
O=S(=O)(Nc1ccc2c(c1)OCO2)c1ccc(Cl)cc1 | inconclusive: 19%
Cc1ccc2nc(CN(C)C(=O)c3cc(CC(C)C)on3)[nH]c2c1 | inactive
Cc1cnccc1N1CCCN(C(=O)c2cnc3ccccc3c2)CC1 | inconclusive: 19%
CCOC(=O)C1C(=O)C=C(c2ccco2)CC1c1cccc(OC)c1OC (centres undefined) | inconclusive: 14%
CCC1CCCCN1S(=O)(=O)c1cc(Br)ccc1Br (centres undefined) | inactive
COc1ccccc1C(CCN)C1CCOC(C)(C)C1 (centres undefined) | inactive
Cc1ccc(C(=O)NC[C@H]2O[C@@H](CC(=O)NCCN(C)C)[C@H](O)[C@@H]2O)cc1 | inconclusive: 18%
COCCN1CCCC(O)(CN(C)Cc2cnccn2)C1=O (centres undefined) | inconclusive: 12%
N#C/C(=C\c1ccc([N+](=O)[O-])cc1)c1nc(-c2ccc(Br)cc2)cs1 | inconclusive: 15%
OCc1nc(-c2ccccc2)cs1 | inconclusive: 17%
CCCc1nc2nc[nH]n2c(=O)c1NC(=O)Nc1ccc(F)c(Cl)c1 | inactive
COc1ccc(Nc2cc(C)nc(Nc3ccc(NC(=O)c4ccc(OC)cc4)cc3)n2)cc1 | active: 32%
COc1cccc(C(=O)Nc2ccccc2C2CC2)c1 | inconclusive: 16%

Structure (SMILES) | inhibition
CC1CCC(NS(=O)(=O)c2ccc3c(c2)CCN3C(=O)CCC(=O)N2CCCC2)CC1 (centres undefined) | inconclusive: 14%
Cc1ccccc1CSc1nnc2c(n1)[nH]c1ccccc12 | inconclusive: 14%
O=C(NCCCN1CCCC1)c1cc(-c2cccs2)nc2ccccc12 | inconclusive: 20%
CCN(CC)c1ncccc1CNC(=O)CN1CC(c2ccccc2)CC1=O (centres undefined) | inactive
COc1ccc(OC)c(S(=O)(=O)Nc2c(C(C)C)cccc2C(C)C)c1 | inactive
O=C(Nc1nnc(-c2ccccc2Br)s1)c1ccc2c(c1)OCO2 | inactive
COc1cc(C2C3=C(CCCC3=O)Nc3nc(SCc4ccccc4)nn32)cc(OC)c1OC (centres undefined) | inconclusive: 22%
CN(CCNC(=O)C[C@@H]1C[C@@H]2C=C[C@H]1C2)S(C)(=O)=O | inconclusive: 18%
COc1ccc(CC2CN(C/C=C/c3ccccc3)CCO2)cc1 (centres undefined) | inconclusive: 19%
O=c1cc(Cl)sn1Cc1ccccc1 | inconclusive: 11%
Cc1ccc(Cn2c(Br)nc3c2c(=O)[nH]c(=O)n3C)cc1 | inconclusive: 12%
COc1ccc2c(c1)OC13CCCCC1C2C(C(=O)c1ccccc1)C(=O)N3 (centres undefined) | inconclusive: 15%
C=CCn1c(CC)nc2c(sc3nc4c(cc32)COC(C)(C)C4)c1=O | inconclusive: 16%
O=[N+]([O-])c1ccc(NCCNS(=O)(=O)c2ccc(Cl)c(Cl)c2)cc1 | inconclusive: 16%
Cc1cc2ccccc2n1CCNS(=O)(=O)c1ccc(Cl)cc1 | inconclusive: 18%
C=CCSc1nnc2c(n1)OC(CC)N(C(C)=O)c1ccccc1-2 (centres undefined) | inactive
CCC(C)NC(=O)c1ccc(CS(=O)(=O)c2ccc(C)cc2)o1 (centres undefined) | inactive
COc1ccc2cc(C3CN(c4nc(C)nc5sccc45)CCO3)ccc2c1 (centres undefined) | inconclusive: 17%
CC1=CC[C@@H]2CN(C(=O)c3nn(C)c(=O)c4ccccc34)C[C@@H]2C1 | inconclusive: 10%
Cc1cc(Cl)ccc1N=Cc1nc(-c2ccccc2F)oc1O | inconclusive: 19%
Cc1cc(C)n(CCCC(=O)N[C@@H]2CC[C@@H](N)C2)n1 | inconclusive: 12%
CC(C)CN(Cc1cnn(C)c1)C(=O)c1cccnc1N1CCOCC1 | inconclusive: 17%
